These are yes or no findings as the source states them, for the method shown. Some results given as binding are weak or reduced against the parent protein; the word gives no strength. Sequences can lack the tags named with a protein.
Columns and labels:
생쥐 간 조직의 TM4SF5 (mouse) [1] = target: 생쥐 간 조직의 TM4SF5 (mouse) (UniProt Q9D8G1); assay: summary of mouse liver tissue staining (Fig. 15)
생쥐 간 조직의 TM4SF5 (mouse) [2] = target: 생쥐 간 조직의 TM4SF5 (mouse) (UniProt Q9D8G1); assay: immunofluorescence staining of liver sections of CCl4-treated mice, antibody 3㎍/mL

Amino acid sequences for entries named in this document (tags omitted). A change or cut given only in a name is not applied to a line headed by its entry. Chains listed by the source or under a name are the forms on record and can include a tag or linker.
생쥐 간 조직의 TM4SF5 (Q9D8G1, form named): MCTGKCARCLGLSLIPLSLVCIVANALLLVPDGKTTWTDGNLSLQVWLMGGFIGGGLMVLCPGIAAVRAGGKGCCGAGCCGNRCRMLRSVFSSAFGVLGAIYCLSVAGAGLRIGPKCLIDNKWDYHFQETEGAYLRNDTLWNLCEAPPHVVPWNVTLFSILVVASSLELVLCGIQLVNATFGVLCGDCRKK

B1: 항-TM4SF5 항체 #27 (scFv-Fc) (Fc fusion)
VH: QVQLQQFGAELVRPGASVTLSCKASGYTFTDYEMHWVKQTPVHGLEWIGAIDPETGGTAYNQKFKGKAILTADKSSSTAYMELRSLTSEDSAVYYCTRPYLGYWGQGTTVTVSS
VL: DAVVTQTPLSLPVSLGDQASISCRSSQSLVHSNGNTYLHWYLQKPGQSPKLLIYKVSNRFSGVPDRFSGSGSGTDFTLKISRVEAEDLGVYYCFQGSHIPLTFGAGTKLELK
생쥐 간 조직의 TM4SF5 (mouse) [1]
  binding: binds
생쥐 간 조직의 TM4SF5 (mouse) [2]
  binding: binds

Reference: patent KR20140018819A
